Measurements taken from article doi:10.1101/196097.
No constants are given. Whether binding was seen depends on the method and setting.

Sequences of proteins named here, by UniProt entry; tags and fusion partners are left off. Residues count along the entry.
UniProt A0A3L7I2I8, residues 177-389: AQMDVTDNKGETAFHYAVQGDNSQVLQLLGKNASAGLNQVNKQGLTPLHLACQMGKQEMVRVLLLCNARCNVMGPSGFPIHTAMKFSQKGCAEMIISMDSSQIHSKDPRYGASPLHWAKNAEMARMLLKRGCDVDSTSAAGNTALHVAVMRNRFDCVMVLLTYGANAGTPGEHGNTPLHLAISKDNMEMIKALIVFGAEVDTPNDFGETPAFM

Target: MBP-tagged ANK domain (177-389) of iPLA2β (Chinese hamster (cloned from CHO cells))
Assay: AUC

binding: no binding
Substance: MBP-tagged ANK domain (177-389) of iPLA2β (from UniProt A0A3L7I2I8 177-389) (domain or fragment)
